Source: the supplement of paper PMC6445147
This is a noisy data set.

B1: human tRNA-Pro; a variant is named by its letters at N, in order (parent)
chain: GGCTCGTTGGTCTAGNGGTATGATTCTCGCTTAGGGTGCGAGAGGTCCCGGGTTCNNATCCCGGACGAGCCC

Key:
[1] = variants of: B1; assay: tRNA Pol-III promoter activity, log2 (circRNA frequency / plasmid DNA frequency) (log2 ratio); higher = stronger promoter activity; conditions: HEK293T; construct: no Pol-II promoter ((-)CMV library)
[2] = variants of: B1; assay: tRNA 3' processing efficiency (processed reads / all reads, maximum-likelihood estimate) (fraction); higher = more efficient 3' processing; conditions: HEK293T; construct: no Pol-II promoter ((-)CMV library)

## GGCTCGTTGGTCTATTGGTATGATTCTCGCTTAGGGTGCGAGAGGTCCCGGGTTCAACTCCCGGACGAGCCC [TAA G15T A58C]
[1]
  tRNA Pol-III promoter activity (log2): 4.26
[2]
  tRNA 3' processing efficiency: 0.49

## GGCTCGTTGGTCTAAGGGGATGATTCTCGCTTAGGGTGCGAGAGGTCCCGGGTTCAAGTCCCGGACGAGCCC [GAA G15A T19G A58G]
[1]
  tRNA Pol-III promoter activity (log2): 4.8
[2]
  tRNA 3' processing efficiency: 0.18

## GGCTCGTTAGTCTAGAGGTATGATTCTCGCTTAGGGTGCGAGAGGTCCCGGGTTCAAGTCCCGGACGAGCCC [AAA G9A A58G]
[1]
  tRNA Pol-III promoter activity (log2): 4.12
[2]
  tRNA 3' processing efficiency: 0.62

## GGCTCGTTGGTCTCGGGGAATGATTCTCGCTTAGGGTGCGAGAGGTCCCGGGTTCACATCCCGGACGAGCCC [GAC A14C T19A]
[1]
  tRNA Pol-III promoter activity (log2): 3.93
[2]
  tRNA 3' processing efficiency: 0.2

## GGCTCGTTGGTCTCGGGGTATGATTCTCGCTTAGGGTGCGAGAGGTCCCGGGTTCAGCTCCCGGACGAGCCC [GAG A14C A58C]
[1]
  tRNA Pol-III promoter activity (log2): 5.93
[2]
  tRNA 3' processing efficiency: 0.25

## GGCTCGTTGGTCTCGGGATATGATTCTCGCTTAGGGTGCGAGAGGTCCCGGGTTCAAAACCCGGACGAGCCC [GAA A14C G18A T59A]
[1]
  tRNA Pol-III promoter activity (log2): 7.53
[2]
  tRNA 3' processing efficiency: 0.25

## GGCTCGTTGGTCTAGAGGTATGATTCTCGCTTAGGGTGCGAGAGGTCCCGGGTTCAAGCCCCGGACGAGCCC [AAA A58G T59C]
[1]
  tRNA Pol-III promoter activity (log2): 5.03
[2]
  tRNA 3' processing efficiency: 0.33

## GGCTCGTTAGTCTAGGTGTATGATTCTCGCTTAGGGTGCGAGAGGTCCCGGGTTCAAGGCCCGGACGAGCCC [GAA G9A G17T A58G T59G]
[1]
  tRNA Pol-III promoter activity (log2): 6.26
[2]
  tRNA 3' processing efficiency: 0.2

## GGCTCGTTAGTCTAGTGGTATGATTCTCGCTTAGGGTGCGGGAGGTCCCGGGTTCAAATCCCGGACGAGCCC [TAA G9A A41G]
[1]
  tRNA Pol-III promoter activity (log2): 6.54
[2]
  tRNA 3' processing efficiency: 0.76

## GGCTCGTTGGTCTAGGGGTATGATTCTCACTTAGGGTGCGAGAGGTCCCGGGTTTAAATCCCGGACGAGCCC [GAA G29A C55T]
[1]
  tRNA Pol-III promoter activity (log2): 3.03
[2]
  tRNA 3' processing efficiency: 0.5

## GGCTCGTTGGTCTAGGGATTTGATTCTCGCTTAGGGTGCGAGAGGTCCCGGGTTCAAAGCCCGGACGAGCCC [GAA G18A A20T T59G]
[1]
  tRNA Pol-III promoter activity (log2): 0.928
[2]
  tRNA 3' processing efficiency: 0.67

## GGCTCGTTGGTCTACGGGTATGATTCTCGCTTAGGGTGCGAGAGGTCCCGGGATCAATTCCCGGACGAGCCC [GAA G15C T53A A58T]
[1]
  tRNA Pol-III promoter activity (log2): 5.4
[2]
  tRNA 3' processing efficiency: 0.36

## GGCTCGTTGGTCTCGGGATATGATTCTCGCTTAGGGTGCGAGAGGTCCCGGGTTCAAATCCCGGACGAGCCC [GAA A14C G18A]
[1]
  tRNA Pol-III promoter activity (log2): 0.798
[2]
  tRNA 3' processing efficiency: 0.3

## GGCTCGTTGGTCTAGGGATATGATTCTCGCTTAGGGTGCGAGAGGTCCCGGGGTCGAATCCCGGACGAGCCC [GGA G18A T53G]
[1]
  tRNA Pol-III promoter activity (log2): 5.74
[2]
  tRNA 3' processing efficiency: 0.43

## GGCTCGTTGGTCTGGGAGTATGATTCTCGCTTAGGGTGCGAGAGGTCCCGGGTTCCCATCCCGGACGAGCCC [GCC A14G G17A]
[1]
  tRNA Pol-III promoter activity (log2): 5.25
[2]
  tRNA 3' processing efficiency: 0.4

## GGCTCGTTGGTCTAGGGGTATGATTCTCGCTTAGGGTGCGAGAGGTCCCGGGTTCCAGTCCCGGACGAGCCC [GCA A58G]
[1]
  tRNA Pol-III promoter activity (log2): 1.52
[2]
  tRNA 3' processing efficiency: 0.25

## GGCTCGTTGGTCTACGGGGATGATTCTCGCTTAGGGTGCGAGAGGTCCCGGGTTCAATTCCCGGACGAGCCC [GAA G15C T19G A58T]
[1]
  tRNA Pol-III promoter activity (log2): 2.36
[2]
  tRNA 3' processing efficiency: 0.5

## GGCTCGTTGGTCTTGGGGTATGATTCTCGCTTAGGGTGCGAGAGGTCCCGGGTTAAAATCCCGGACGAGCCC [GAA A14T C55A]
[1]
  tRNA Pol-III promoter activity (log2): -1.2
[2]
  tRNA 3' processing efficiency: 0.2

## GGCTCGTAGGTCTAGGGGTGTGATTCTCGCTTAGGGTGCGAGAGGTCCCGGGTTCTAATCCCGGACGAGCCC [GTA T8A A20G]
[1]
  tRNA Pol-III promoter activity (log2): 3.62
[2]
  tRNA 3' processing efficiency: 0.25

## GGCTCGTTGGTCTACGCGTATGATTCTCGCTTAGGGTGCGAGAGGTCCCGGGTTCTAATCCCGGACGAGCCC [GTA G15C G17C]
[1]
  tRNA Pol-III promoter activity (log2): 4.91
[2]
  tRNA 3' processing efficiency: 0.15

## GGCTCGTTGGTCTAGGGGTATGATTCTCACTTAGGGTGCGAGAGGTCCCGGGGTCAAATCCCGGACGAGCCC [GAA G29A T53G]
[1]
  tRNA Pol-III promoter activity (log2): 5.03
[2]
  tRNA 3' processing efficiency: 0.25

## GGCTCGTCGGTCTAGTGGTATGATTCTCGCTTAGGGTGCGAGAGGTCCCGGGTTCACATCCCGGACGAGCCC [TAC T8C]
[1]
  tRNA Pol-III promoter activity (log2): 5.53
[2]
  tRNA 3' processing efficiency: 0.33

## GGCTCGTTGGTCTGGGCATATGATTCTCGCTTAGGGTGCGAGAGGTCCCGGGTTCAAATCCCGGACGAGCCC [GAA A14G G17C G18A]
[1]
  tRNA Pol-III promoter activity (log2): 4.71
[2]
  tRNA 3' processing efficiency: 0.38

## GGCTCGTTGGTCTAGAGGTGTGATTCTCGCTTAGGGTGCGAGAGGTCCCGGGTTCACATCCCGGACGAGCCC [AAC A20G]
[1]
  tRNA Pol-III promoter activity (log2): 3.21
[2]
  tRNA 3' processing efficiency: 0.5

## GGCTCGTTGGTCTAGGGGTTTGATTCTCGCTTAGGGTGCGAGAGGTCCCGGGTTCTACTCCCGGACGAGCCC [GTA A20T A58C]
[1]
  tRNA Pol-III promoter activity (log2): 2.93
[2]
  tRNA 3' processing efficiency: 0.38

## GGCTCGTTGGTCTAAGGGAATGATTCTCGCTTAGGGTGCGAGAGGTCCCGGGTTCTAATCCCGGACGAGCCC [GTA G15A T19A]
[1]
  tRNA Pol-III promoter activity (log2): 3.61
[2]
  tRNA 3' processing efficiency: 0.25

## GGCTCGTTGGTCTACGGGTATGATTCTCGCTTAGGGTGCGAGAGGTCCCGGGATCAAATCCCGGACGAGCCC [GAA G15C T53A]
[1]
  tRNA Pol-III promoter activity (log2): 2.64
[2]
  tRNA 3' processing efficiency: 0.24

## GGCTCGTTGGTCTAGTTGTATGATTCTCGCTTAGGGTGCGAGAGGTCCCGGGTTCCTATCCCGGACGAGCCC [TCT G17T]
[1]
  tRNA Pol-III promoter activity (log2): 5.94
[2]
  tRNA 3' processing efficiency: 0.25

## GGCTCGTTGGTCTAGGGGTATGATTCTCGCTTAGGGTGCGAGAGGTCCCGGGTTTGCATCCCGGACGAGCCC [GGC C55T]
[1]
  tRNA Pol-III promoter activity (log2): 5.15
[2]
  tRNA 3' processing efficiency: 0.57

## GGCTCGTTGGTCTGGCGGTATGATTCTCGCTTAGGGTGCGAGAGGTCCCGGGTTCAAATCCCGGACGAGCCC [CAA A14G]
[1]
  tRNA Pol-III promoter activity (log2): 1.02
[2]
  tRNA 3' processing efficiency: 0.44

## GGCTCGTGGGTCTAATGGTATGATTCTCGCTTAGGGTGCGAGAGGTCCCGGGTTCACATCCCGGACGAGCCC [TAC T8G G15A]
[1]
  tRNA Pol-III promoter activity (log2): 4.93
[2]
  tRNA 3' processing efficiency: 0.25

## GGCTCGTTGGTCTAGGGGTATGATTCTCGCTTAGGGTGCGAGAGGTCCCGGGTTCACCACCCGGACGAGCCC [GAC A58C T59A]
[1]
  tRNA Pol-III promoter activity (log2): 4.67
[2]
  tRNA 3' processing efficiency: 0.2

## GGCTCGTTGGTCTAGGGGTATGATTCTCGCTTAGGGTGCGAGAGGTCCCGGGATCGAATCCCGGACGAGCCC [GGA T53A]
[1]
  tRNA Pol-III promoter activity (log2): 1.4
[2]
  tRNA 3' processing efficiency: 0.43

## GGCTCGTTGGTCTAGGGGTGTGATTCTCGCTTAGGGTGCGAGAGGTCCCGGGTTCAACTCCCGGACGAGCCC [GAA A20G A58C]
[1]
  tRNA Pol-III promoter activity (log2): 2.24
[2]
  tRNA 3' processing efficiency: 0.73

## GGCTCGTTGGTCTCGGGTTATGATTCTCGCTTAGGGTGCGAGAGGTCCCGGGTACAAATCCCGGACGAGCCC [GAA A14C G18T T54A]
[1]
  tRNA Pol-III promoter activity (log2): 6.75
[2]
  tRNA 3' processing efficiency: 0.57

## GGCTCGTTGGTCTAGACGTATGATTCTCGCTTAGGGTGCGAGAGGTCCCGGGTTCATATCCCGGACGAGCCC [AAT G17C]
[1]
  tRNA Pol-III promoter activity (log2): 4.36
[2]
  tRNA 3' processing efficiency: 0.25

## GGCTCGTTGGTCTAGTGGTTTGATTCTCGCTTAGGGTGCGAGAGGTCCCGGGATCAAATCCCGGACGAGCCC [TAA A20T T53A]
[1]
  tRNA Pol-III promoter activity (log2): 7.06
[2]
  tRNA 3' processing efficiency: 0.11

## GGCTCGTTGGTCTGGGGGGATGATTCTCGCTTAGGGTGCGAGAGGTCCCGGGTACGAATCCCGGACGAGCCC [GGA A14G T19G T54A]
[1]
  tRNA Pol-III promoter activity (log2): 4.36
[2]
  tRNA 3' processing efficiency: 0.38
